The target in this experiment is T1, SRSF7-GFP fusion product (Serine/arginine-rich splicing factor 7, GFP-tagged at the C-terminus, from a BAC) (human) (UniProt Q16629).
T1 sequence: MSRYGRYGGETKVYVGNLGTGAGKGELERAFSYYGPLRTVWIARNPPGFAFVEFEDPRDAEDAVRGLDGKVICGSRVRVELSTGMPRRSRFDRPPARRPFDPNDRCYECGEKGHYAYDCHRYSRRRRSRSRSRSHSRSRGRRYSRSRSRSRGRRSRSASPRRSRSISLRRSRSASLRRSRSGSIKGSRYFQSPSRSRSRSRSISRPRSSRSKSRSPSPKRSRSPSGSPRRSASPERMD
Kind of experiment: co-IP; GFP-Trap agarose beads on lysates of BAC-SRSF7-GFP MDA-MB-231 cells treated with 0.1% DMSO or 1 µM T-025 for 24 h; EBC buffer, benzonase, 300 mM NaCl, 2 h at 4 °C; six washes; Western blotting; MDA-MB-231-GFP cells as negative control.

Amino acid sequences for entries named in this document (tags omitted).
UniProt P49760: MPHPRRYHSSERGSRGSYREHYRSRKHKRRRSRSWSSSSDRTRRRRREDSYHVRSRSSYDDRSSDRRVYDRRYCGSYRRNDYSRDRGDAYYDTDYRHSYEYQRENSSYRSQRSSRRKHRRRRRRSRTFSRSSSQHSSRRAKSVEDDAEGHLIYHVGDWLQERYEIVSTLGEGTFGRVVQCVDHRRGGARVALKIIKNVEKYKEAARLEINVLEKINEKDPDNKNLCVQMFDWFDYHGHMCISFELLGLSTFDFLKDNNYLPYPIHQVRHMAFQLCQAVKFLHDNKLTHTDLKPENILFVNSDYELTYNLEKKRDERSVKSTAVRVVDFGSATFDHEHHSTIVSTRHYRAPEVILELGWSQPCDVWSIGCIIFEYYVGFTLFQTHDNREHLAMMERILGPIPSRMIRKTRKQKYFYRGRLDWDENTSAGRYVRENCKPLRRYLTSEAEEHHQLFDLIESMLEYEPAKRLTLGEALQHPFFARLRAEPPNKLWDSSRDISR

Results are given in words; binding and its absence hold for the method and conditions named. In cells and extracts the contact can be indirect. Some binding calls cover weakened binding; strength is not graded here. Tags and fused reporters may be left off the sequences shown.

Take CLK2 (from UniProt P49760 1-499): the binding entry is “binds”.

Source of the values: paper PMC12309053.
